Experimental data reported in the supplement of paper PMC7666118.
This is one part of the list.

The chains behind the UniProt entries cited, without tags or fusion partners. Where a name states a change or a piece, a line headed by the entry shows the natural chain unless it says otherwise.
UniProt Q01082, whole entry: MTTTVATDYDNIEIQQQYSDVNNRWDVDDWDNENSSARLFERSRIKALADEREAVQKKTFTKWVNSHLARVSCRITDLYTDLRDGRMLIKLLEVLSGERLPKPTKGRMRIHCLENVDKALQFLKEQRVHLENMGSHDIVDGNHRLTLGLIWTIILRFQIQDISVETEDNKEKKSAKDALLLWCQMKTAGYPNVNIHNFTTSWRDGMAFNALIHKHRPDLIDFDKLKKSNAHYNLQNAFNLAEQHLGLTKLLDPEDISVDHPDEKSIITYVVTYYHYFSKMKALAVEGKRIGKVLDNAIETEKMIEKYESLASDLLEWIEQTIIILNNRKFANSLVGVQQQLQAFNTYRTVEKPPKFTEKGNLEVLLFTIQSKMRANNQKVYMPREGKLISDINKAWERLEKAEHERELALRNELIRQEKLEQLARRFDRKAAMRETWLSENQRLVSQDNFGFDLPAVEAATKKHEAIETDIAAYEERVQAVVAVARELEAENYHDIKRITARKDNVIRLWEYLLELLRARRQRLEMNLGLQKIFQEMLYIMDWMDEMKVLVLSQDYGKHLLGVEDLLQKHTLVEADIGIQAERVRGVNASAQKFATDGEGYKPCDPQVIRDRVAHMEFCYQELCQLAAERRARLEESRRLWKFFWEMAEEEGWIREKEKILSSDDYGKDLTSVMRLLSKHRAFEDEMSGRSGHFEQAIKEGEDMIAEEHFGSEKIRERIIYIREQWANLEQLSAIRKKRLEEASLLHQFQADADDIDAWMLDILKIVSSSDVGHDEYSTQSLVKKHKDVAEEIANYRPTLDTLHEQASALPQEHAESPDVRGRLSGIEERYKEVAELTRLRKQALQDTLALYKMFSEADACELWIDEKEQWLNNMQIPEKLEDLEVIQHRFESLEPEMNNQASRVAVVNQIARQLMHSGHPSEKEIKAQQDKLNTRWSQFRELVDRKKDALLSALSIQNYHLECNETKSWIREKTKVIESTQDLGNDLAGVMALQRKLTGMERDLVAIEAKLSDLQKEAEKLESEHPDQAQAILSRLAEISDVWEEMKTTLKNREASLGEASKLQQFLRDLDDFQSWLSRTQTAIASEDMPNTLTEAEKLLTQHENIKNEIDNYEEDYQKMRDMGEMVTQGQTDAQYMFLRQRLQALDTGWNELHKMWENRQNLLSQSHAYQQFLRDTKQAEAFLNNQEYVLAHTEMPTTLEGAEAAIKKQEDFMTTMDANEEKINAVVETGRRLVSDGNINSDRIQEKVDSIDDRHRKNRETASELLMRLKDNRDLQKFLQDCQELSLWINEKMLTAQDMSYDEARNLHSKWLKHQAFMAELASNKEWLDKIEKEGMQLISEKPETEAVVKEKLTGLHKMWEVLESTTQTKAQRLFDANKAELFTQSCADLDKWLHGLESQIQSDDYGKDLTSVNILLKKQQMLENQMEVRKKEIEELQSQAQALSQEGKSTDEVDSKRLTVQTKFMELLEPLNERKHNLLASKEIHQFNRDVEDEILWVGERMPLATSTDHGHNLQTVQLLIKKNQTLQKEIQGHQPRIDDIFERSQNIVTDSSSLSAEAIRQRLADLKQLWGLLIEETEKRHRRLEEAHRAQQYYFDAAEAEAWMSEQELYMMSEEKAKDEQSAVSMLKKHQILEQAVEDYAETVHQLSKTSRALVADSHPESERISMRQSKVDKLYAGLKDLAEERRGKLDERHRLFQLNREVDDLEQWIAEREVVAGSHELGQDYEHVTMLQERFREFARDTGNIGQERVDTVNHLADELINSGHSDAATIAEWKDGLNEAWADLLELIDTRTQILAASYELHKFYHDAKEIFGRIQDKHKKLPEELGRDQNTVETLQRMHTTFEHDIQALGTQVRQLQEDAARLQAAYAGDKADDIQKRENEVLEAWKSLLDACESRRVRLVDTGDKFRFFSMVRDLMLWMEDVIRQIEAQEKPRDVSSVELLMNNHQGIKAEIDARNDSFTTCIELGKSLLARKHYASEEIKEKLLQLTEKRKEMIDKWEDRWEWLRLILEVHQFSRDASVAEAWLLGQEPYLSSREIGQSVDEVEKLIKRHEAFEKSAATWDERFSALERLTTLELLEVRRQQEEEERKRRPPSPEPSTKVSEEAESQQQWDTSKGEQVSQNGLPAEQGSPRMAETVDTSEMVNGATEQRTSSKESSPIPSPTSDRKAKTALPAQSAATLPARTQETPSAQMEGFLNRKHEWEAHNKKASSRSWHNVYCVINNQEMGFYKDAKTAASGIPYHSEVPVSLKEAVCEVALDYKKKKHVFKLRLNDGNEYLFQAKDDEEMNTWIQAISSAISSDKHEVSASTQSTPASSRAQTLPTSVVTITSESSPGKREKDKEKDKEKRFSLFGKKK
UniProt Q02086: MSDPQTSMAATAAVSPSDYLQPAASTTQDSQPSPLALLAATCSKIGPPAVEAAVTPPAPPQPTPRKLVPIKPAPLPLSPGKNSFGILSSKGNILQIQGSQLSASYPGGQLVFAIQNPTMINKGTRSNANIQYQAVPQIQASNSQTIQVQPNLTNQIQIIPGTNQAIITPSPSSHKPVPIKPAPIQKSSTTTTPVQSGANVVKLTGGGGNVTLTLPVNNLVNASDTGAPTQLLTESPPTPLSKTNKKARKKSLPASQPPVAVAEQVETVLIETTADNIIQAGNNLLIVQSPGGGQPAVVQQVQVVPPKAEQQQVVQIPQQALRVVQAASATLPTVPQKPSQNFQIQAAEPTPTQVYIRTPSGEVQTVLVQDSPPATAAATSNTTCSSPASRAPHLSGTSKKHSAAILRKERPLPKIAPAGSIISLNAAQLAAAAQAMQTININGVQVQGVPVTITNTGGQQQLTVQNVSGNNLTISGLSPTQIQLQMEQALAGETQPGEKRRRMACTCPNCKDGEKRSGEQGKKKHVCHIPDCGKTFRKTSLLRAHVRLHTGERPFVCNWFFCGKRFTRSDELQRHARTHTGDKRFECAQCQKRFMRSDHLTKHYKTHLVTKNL
UniProt Q9NP77: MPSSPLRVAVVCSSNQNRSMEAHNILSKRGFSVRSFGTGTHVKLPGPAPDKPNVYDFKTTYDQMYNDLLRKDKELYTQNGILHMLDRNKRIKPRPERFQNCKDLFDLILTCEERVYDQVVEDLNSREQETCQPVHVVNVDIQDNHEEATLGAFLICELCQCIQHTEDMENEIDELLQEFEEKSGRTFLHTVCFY
UniProt Q92187: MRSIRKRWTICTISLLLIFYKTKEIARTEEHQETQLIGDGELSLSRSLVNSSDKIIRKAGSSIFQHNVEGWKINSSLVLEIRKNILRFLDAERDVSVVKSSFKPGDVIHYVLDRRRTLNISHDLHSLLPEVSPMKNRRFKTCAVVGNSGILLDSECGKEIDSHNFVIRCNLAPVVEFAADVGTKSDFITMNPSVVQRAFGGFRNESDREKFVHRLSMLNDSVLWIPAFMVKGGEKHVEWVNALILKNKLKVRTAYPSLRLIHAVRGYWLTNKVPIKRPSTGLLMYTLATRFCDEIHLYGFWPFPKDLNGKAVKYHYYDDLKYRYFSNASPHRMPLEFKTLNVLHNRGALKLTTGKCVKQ
UniProt P21675, whole entry: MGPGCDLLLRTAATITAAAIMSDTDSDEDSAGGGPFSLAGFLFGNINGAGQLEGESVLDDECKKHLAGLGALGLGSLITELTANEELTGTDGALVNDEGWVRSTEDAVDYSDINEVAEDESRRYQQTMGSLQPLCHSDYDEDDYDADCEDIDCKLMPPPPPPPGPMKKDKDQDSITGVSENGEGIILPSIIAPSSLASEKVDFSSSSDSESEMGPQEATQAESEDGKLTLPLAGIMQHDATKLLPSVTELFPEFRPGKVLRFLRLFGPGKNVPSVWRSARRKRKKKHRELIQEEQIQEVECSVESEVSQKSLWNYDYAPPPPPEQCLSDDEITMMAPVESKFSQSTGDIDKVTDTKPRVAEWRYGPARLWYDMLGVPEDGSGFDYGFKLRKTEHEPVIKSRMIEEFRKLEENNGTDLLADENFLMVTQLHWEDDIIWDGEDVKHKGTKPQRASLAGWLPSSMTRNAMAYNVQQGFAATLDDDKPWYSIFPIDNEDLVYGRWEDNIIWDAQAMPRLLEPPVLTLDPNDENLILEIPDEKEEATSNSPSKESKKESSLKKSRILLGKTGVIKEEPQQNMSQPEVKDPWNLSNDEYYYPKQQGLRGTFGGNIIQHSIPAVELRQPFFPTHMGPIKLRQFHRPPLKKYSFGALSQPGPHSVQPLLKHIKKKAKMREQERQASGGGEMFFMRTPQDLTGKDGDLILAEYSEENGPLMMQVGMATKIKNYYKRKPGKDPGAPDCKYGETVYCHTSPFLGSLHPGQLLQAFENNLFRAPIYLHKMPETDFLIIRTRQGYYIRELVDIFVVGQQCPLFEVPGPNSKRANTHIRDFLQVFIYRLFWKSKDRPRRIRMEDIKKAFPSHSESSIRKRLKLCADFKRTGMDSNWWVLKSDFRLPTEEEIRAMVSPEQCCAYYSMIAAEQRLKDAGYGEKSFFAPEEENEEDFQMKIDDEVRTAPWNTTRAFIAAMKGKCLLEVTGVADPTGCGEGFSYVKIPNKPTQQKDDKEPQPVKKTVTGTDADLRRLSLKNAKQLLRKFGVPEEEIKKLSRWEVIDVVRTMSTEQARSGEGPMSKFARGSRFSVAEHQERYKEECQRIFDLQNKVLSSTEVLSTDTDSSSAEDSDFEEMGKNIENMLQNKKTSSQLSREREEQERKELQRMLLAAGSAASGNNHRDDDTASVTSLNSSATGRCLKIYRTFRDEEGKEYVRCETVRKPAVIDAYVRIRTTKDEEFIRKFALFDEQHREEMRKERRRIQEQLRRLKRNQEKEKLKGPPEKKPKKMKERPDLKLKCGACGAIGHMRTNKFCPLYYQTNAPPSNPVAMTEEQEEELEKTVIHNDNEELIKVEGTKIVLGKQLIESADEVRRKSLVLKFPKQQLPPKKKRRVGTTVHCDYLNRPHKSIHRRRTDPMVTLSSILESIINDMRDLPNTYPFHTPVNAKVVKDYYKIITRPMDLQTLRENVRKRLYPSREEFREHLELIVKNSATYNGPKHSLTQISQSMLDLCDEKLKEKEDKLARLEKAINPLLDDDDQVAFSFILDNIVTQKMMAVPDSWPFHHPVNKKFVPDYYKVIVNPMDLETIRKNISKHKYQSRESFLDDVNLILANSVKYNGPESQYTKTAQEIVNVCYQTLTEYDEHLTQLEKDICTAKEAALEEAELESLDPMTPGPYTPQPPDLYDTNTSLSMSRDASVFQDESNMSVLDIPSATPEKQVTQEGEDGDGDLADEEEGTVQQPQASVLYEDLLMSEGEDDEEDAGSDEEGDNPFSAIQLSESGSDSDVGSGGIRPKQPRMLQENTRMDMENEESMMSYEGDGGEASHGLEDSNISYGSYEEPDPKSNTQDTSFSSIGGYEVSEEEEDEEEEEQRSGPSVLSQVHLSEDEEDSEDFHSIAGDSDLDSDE
UniProt P30626: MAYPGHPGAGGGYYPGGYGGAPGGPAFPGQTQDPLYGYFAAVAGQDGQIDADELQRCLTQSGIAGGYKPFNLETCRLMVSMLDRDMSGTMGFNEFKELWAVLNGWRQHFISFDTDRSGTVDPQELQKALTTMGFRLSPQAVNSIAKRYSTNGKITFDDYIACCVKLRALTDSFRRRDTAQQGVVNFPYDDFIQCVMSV
UniProt Q02446, whole entry: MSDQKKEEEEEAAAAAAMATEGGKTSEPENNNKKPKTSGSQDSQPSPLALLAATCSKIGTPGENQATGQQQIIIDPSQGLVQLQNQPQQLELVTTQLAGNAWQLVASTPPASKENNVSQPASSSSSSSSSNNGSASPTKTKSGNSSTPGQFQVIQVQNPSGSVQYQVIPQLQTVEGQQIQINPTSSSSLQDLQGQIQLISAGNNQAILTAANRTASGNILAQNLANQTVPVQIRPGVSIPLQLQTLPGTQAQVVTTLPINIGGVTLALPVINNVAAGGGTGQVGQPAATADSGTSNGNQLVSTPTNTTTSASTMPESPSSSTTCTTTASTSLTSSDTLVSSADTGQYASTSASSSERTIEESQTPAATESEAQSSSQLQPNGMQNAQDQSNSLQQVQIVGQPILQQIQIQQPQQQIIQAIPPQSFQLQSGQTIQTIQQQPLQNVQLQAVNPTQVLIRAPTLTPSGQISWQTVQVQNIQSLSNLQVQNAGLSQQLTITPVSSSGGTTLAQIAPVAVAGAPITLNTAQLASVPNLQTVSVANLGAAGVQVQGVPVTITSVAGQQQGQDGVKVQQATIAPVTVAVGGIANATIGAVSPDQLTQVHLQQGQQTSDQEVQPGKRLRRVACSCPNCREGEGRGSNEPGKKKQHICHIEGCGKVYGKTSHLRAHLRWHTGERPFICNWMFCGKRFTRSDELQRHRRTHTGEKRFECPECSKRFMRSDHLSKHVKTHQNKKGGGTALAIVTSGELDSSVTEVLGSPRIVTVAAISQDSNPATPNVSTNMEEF

Compound: COc1ccc(Cn2ccc3ccc(C(=O)NO)cc32)cc1
Assay: dose-dependent thermal stabilisation call (2D-TPP, DLPTP, 10% FDR) (binary (1 = stabilised)); higher = stabilised by the compound
Settings: system: HL-60 intact cells; concentration range 0.04-10 µM

Row | Target | dose-dependent thermal stabilisation call
1 | SWAP70 (UniProt Q9UH65) | inactive: 0
2 | SPTBN1 (UniProt Q01082) | inactive: 0
3 | SMC3 (UniProt Q9UQE7) | inactive: 0
4 | SRA1 (UniProt Q9HD15) | inactive: 0
5 | STXBP3 (UniProt O00186) | inactive: 0
6 | TAF4 (UniProt O00268) | inactive: 0
7 | SP2 (UniProt Q02086) | inactive: 0
8 | SOAT1 (UniProt P35610) | inactive: 0
9 | TAF10 (UniProt Q12962) | inactive: 0
10 | SURF4 (UniProt O15260) | inactive: 0
11 | SNRPB2 (UniProt P08579) | inactive: 0
12 | SP100 (UniProt P23497) | inactive: 0
13 | SMAD2 (UniProt Q15796) | inactive: 0
14 | STXBP2 (UniProt Q15833) | inactive: 0
15 | SSU72 (UniProt Q9NP77) | inactive: 0
16 | SRF (UniProt P11831) | inactive: 0
17 | SMARCAD1 (UniProt Q9H4L7) | inactive: 0
18 | SRPR (UniProt P08240) | inactive: 0
19 | SMAP2 (UniProt Q8WU79) | inactive: 0

Row | Target | dose-dependent thermal stabilisation call
20 | ST8SIA4 (UniProt Q92187) | inactive: 0
21 | TAF1 (UniProt P21675) | inactive: 0
22 | SMN1 (UniProt Q16637) | inactive: 0
23 | TAF7 (UniProt Q15545) | inactive: 0
24 | SNX27 (UniProt Q96L92) | inactive: 0
25 | SRI (UniProt P30626) | inactive: 0
26 | SMCHD1 (UniProt A6NHR9) | inactive: 0
27 | SPAST (UniProt Q9UBP0) | inactive: 0
28 | SQRDL (UniProt Q9Y6N5) | inactive: 0
29 | ST7 (UniProt Q9NRC1) | inactive: 0
30 | SRCAP (UniProt Q6ZRS2) | inactive: 0
31 | SUCLA2 (UniProt Q9P2R7) | inactive: 0
32 | SPATA5 (UniProt Q8NB90) | inactive: 0
33 | SMU1 (UniProt Q2TAY7) | inactive: 0
34 | SNRNP70 (UniProt P08621) | inactive: 0
35 | SSB (UniProt P05455) | inactive: 0
36 | SP4 (UniProt Q02446) | inactive: 0
37 | SLU7 (UniProt O95391) | inactive: 0

An excerpt of these results, comma-delimited.
Row,Target,dose-dependent thermal stabilisation call
20,ST8SIA4 (UniProt Q92187),inactive: 0
21,TAF1 (UniProt P21675),inactive: 0
24,SNX27 (UniProt Q96L92),inactive: 0
25,SRI (UniProt P30626),inactive: 0
26,SMCHD1 (UniProt A6NHR9),inactive: 0
27,SPAST (UniProt Q9UBP0),inactive: 0
28,SQRDL (UniProt Q9Y6N5),inactive: 0
29,ST7 (UniProt Q9NRC1),inactive: 0
33,SMU1 (UniProt Q2TAY7),inactive: 0
35,SSB (UniProt P05455),inactive: 0
37,SLU7 (UniProt O95391),inactive: 0
